{"source": "patent US12397045B2", "about": "“Clostridioides difficile” (IMPERIAL COLLEGE OF SCIENCE, TECHNOLOGY AND MEDICINE, priority 2018, dated 2025)", "test_system": "C. difficile DS1684 (ribotype 010)", "test": "Chemostat model of CDI (FMT vs saline)", "assay_type": "cell-based, Clostridioides difficile", "settings": "clindamycin 33.9 mg/L every 12 hours for 7 days, p<0.001", "note": "For at least one compound, name, drawing or mass did not settle the structure."}
{"smiles": "CCC[C@@H]1C[C@@H](C(=O)N[C@@H]([C@H]2O[C@H](SC)[C@H](O)[C@@H](O)[C@H]2O)[C@H](C)Cl)N(C)C1", "note": "[clindamycin]", "values": [{"measurement": "C. difficile TVC during the clindamycin-dosing period", "result": "increase"}]}
